The other results are listed elsewhere or left out.
Key:
Experiment in all cases: log2 fold change, soluble protein after heating vs DMSO (PISA); higher = thermal stabilisation; K562 lysate, 10 uM; active = over 0.2 and 3.5 SD of the protein, either way, in both replicates (recomputed)
lapatinib = compound: CS(=O)(=O)CCNCc1ccc(-c2ccc3ncnc(Nc4ccc(OCc5cccc(F)c5)c(Cl)c4)c3c2)o1 [lapatinib]
In short: (§1)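 K562 pellets were dounce-homogenised in PBS pH 7.4 containing 1 mM MgCl2, and the crude extract, at 1 mg/mL protein, was exposed to 10 μM compound for 30 min. Aliquots were heated for 3 min across 48°C-58°C, pooled, brought to 0.5% NP-40 at 4°C and spun at 21,000xg for 90 min, with the supernatant taken as soluble protein. TMTpro 16plex LC-MS/MS with equalised channel sums quantified that protein. Values are log-two fold changes in thermal stability relative to solvent controls, taken from duplicates.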

By UniProt entry, the sequences of proteins in these tests, tags left out. Where a name states a change or a piece, a line headed by the entry shows the natural chain unless it says otherwise.
UniProt Q9Y4K4: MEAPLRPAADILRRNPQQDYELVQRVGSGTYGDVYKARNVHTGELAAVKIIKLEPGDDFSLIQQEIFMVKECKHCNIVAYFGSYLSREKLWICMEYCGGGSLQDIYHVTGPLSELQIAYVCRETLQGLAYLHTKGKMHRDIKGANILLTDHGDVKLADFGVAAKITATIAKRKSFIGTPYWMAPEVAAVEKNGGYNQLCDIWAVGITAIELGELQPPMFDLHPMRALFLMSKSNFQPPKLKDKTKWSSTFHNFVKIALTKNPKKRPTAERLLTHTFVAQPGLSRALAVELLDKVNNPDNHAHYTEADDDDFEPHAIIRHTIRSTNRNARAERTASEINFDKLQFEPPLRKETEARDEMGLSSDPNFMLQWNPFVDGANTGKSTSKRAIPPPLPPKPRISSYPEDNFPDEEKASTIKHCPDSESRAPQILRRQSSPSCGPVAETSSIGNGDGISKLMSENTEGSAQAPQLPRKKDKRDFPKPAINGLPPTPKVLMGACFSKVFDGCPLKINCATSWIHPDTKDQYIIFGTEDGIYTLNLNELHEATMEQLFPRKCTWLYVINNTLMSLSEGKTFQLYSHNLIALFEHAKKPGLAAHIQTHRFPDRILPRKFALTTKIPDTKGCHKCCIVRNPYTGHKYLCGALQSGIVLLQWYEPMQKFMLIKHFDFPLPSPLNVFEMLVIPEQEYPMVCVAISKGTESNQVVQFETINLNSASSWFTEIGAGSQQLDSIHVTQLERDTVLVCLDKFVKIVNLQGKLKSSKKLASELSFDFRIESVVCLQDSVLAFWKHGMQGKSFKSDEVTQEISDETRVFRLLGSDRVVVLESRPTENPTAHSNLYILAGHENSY
UniProt Q7Z3D4: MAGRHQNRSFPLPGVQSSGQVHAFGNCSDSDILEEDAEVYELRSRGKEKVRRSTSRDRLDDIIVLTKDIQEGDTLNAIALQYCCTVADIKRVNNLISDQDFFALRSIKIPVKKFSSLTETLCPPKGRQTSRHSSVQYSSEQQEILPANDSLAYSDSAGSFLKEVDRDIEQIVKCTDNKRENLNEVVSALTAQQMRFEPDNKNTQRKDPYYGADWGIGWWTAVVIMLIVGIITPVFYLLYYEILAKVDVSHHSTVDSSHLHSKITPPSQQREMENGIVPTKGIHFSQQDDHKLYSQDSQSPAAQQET
UniProt Q16539, whole entry, looked up: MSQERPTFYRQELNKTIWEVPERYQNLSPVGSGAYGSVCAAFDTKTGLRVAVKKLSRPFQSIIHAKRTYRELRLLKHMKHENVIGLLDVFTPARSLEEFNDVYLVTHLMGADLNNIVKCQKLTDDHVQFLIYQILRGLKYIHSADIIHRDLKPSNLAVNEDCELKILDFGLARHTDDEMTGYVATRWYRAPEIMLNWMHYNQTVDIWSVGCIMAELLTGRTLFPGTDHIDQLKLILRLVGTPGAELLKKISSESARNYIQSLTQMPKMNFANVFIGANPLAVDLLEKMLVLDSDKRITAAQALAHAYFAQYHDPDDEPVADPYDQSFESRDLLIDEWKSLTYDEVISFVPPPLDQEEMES
UniProt Q13164: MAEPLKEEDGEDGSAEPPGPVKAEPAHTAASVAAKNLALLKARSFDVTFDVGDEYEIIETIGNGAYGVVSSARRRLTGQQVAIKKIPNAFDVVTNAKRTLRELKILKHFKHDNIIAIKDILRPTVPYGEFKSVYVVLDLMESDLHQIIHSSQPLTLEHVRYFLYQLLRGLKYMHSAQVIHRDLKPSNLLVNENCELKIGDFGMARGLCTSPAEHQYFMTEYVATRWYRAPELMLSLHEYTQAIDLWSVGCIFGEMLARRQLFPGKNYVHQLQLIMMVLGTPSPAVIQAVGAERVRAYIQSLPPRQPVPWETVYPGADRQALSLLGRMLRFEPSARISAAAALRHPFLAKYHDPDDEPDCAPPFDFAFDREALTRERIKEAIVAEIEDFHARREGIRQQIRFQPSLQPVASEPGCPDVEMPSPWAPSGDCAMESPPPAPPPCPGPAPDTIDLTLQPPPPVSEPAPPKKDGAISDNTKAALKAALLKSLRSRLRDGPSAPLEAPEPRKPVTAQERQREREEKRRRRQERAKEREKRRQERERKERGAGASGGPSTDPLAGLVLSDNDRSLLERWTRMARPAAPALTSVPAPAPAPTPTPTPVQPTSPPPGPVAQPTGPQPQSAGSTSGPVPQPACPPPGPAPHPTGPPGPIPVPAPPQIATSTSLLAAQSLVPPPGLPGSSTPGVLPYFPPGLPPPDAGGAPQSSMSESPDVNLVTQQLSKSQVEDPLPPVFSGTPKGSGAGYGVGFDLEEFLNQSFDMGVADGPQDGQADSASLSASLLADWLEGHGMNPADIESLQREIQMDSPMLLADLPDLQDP
UniProt Q15759, whole entry, looked up: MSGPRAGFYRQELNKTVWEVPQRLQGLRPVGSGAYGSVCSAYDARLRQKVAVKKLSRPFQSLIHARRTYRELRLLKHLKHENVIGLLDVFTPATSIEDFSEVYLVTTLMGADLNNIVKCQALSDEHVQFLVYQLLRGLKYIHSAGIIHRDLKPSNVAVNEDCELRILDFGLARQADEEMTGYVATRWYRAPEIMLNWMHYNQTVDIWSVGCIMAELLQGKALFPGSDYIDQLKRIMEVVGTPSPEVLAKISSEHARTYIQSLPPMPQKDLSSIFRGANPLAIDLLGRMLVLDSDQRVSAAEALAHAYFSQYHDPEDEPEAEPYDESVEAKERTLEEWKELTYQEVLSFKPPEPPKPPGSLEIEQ
UniProt O95819: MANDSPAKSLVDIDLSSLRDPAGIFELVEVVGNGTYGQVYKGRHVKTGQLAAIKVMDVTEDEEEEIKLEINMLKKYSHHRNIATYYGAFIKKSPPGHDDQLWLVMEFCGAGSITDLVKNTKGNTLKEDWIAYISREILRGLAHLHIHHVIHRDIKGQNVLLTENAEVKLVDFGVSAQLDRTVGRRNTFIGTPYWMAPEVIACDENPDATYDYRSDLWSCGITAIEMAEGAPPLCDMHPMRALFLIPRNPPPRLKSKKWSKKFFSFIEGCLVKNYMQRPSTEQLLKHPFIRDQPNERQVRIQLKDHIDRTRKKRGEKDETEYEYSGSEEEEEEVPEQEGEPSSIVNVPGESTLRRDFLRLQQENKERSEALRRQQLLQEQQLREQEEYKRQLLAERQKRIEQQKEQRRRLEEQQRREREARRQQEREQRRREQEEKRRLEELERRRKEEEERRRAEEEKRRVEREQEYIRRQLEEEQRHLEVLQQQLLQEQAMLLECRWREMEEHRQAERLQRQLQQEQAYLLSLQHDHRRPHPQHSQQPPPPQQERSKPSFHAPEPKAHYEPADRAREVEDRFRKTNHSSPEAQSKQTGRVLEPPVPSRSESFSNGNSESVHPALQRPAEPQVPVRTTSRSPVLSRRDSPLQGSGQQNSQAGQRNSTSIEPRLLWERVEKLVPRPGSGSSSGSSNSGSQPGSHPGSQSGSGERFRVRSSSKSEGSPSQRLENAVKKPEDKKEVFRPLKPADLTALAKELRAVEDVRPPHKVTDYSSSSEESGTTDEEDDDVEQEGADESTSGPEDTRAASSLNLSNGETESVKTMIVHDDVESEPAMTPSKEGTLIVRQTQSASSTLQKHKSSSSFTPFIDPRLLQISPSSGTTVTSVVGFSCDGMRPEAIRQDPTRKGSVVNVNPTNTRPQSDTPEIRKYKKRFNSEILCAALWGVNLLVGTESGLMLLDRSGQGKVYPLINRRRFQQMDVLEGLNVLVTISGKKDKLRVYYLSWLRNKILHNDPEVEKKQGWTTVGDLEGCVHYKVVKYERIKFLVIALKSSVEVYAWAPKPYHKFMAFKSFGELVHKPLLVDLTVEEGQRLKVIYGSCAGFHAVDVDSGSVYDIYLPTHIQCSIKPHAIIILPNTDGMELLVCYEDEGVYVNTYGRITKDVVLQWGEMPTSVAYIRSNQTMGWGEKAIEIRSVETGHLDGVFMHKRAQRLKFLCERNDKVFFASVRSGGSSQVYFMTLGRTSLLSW
UniProt P43358: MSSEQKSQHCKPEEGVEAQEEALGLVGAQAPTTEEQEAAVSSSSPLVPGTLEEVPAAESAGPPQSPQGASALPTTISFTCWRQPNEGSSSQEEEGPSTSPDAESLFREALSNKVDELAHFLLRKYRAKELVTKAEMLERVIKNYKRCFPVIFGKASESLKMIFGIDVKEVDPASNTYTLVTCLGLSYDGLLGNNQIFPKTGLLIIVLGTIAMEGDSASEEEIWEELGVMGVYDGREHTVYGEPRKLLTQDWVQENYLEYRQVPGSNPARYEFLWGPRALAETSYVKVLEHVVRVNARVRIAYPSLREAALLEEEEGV
UniProt O60307: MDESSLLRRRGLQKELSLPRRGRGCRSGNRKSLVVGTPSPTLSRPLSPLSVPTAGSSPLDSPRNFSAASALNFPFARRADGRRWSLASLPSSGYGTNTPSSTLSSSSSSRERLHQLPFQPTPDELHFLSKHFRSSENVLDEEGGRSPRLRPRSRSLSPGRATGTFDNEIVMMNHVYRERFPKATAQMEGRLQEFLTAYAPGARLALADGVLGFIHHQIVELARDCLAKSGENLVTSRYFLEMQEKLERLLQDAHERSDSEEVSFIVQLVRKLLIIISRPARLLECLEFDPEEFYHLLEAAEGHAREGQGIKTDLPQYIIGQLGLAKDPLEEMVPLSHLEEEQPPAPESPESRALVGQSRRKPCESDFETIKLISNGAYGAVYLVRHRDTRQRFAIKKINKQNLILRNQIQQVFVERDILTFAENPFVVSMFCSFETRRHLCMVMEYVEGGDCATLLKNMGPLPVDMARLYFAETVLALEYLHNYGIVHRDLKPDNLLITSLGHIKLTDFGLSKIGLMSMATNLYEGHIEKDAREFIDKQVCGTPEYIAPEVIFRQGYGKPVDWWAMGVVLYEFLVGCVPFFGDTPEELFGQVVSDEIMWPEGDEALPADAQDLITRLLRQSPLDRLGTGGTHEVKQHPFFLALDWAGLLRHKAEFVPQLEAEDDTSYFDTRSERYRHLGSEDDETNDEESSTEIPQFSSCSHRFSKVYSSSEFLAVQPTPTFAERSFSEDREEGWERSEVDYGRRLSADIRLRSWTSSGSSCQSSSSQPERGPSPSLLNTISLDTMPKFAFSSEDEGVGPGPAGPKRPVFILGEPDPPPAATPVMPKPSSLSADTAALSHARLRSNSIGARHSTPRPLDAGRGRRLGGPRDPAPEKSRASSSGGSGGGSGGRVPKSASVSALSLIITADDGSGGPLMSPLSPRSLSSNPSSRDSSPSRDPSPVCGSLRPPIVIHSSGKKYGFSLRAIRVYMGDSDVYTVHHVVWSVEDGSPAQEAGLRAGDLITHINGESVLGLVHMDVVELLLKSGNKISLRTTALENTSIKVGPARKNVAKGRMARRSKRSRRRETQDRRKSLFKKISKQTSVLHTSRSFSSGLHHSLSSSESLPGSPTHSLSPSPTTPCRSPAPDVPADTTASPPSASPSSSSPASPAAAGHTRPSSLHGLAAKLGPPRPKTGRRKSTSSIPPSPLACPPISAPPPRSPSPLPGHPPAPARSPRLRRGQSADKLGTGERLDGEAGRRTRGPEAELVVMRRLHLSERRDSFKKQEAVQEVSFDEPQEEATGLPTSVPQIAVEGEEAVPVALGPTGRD

pictilisib = compound: CS(=O)(=O)N1CCN(Cc2cc3nc(-c4cccc5[nH]ncc45)nc(N4CCOCC4)c3s2)CC1 [pictilisib]
In short: as §1

[1] = compound: C[C@H](C1=CC=C(C=C1)C(=O)NC2=C3C=CNC3=NC=C2)N
In short: as §1

duvelisib = compound: C[C@H](Nc1ncnc2nc[nH]c12)c1cc2cccc(Cl)c2c(=O)n1-c1ccccc1 [duvelisib]
In short: as §1

gandotinib = compound: Cc1cc(Nc2cc(CN3CCOCC3)c3nc(C)c(Cc4ccc(Cl)cc4F)n3n2)n[nH]1 [gandotinib]
In short: as §1

tozasertib = compound: Cc1cc(Nc2cc(N3CCN(C)CC3)nc(Sc3ccc(NC(=O)C4CC4)cc3)n2)n[nH]1 [tozasertib]
In short: as §1

doramapimod = compound: Cc1ccc(-n2nc(C(C)(C)C)cc2NC(=O)Nc2ccc(OCCN3CCOCC3)c3ccccc23)cc1 [doramapimod]
In short: as §1

bafetinib = compound: Cc1ccc(NC(=O)c2ccc(CN3CC[C@H](N(C)C)C3)c(C(F)(F)F)c2)cc1Nc1nccc(-c2cncnc2)n1 [bafetinib]
In short: as §1

[2] = compound: Cc1cccc(CC(=O)N2CCc3c2ccc(-c2cn(C)c4ncnc(N)c24)c3F)n1
In short: as §1

nilotinib = compound: Cc1cn(-c2cc(NC(=O)c3ccc(C)c(Nc4nccc(-c5cccnc5)n4)c3)cc(C(F)(F)F)c2)cn1 [nilotinib]
In short: as §1

[3] = compound: Cc1nc(Nc2n[nH]c3c2CN(C(=O)N[C@H](CN(C)C)c2ccccc2)C3(C)C)c2sccc2n1
In short: as §1

dasatinib = compound: Cc1nc(Nc2ncc(C(=O)Nc3c(C)cccc3Cl)s2)cc(N2CCN(CCO)CC2)n1 [dasatinib]
In short: as §1

[4] = compound: Cc1ncc(-c2ccnc(Nc3ccc(S(C)(=O)=O)cc3)n2)n1C(C)C
In short: as §1

[5] = compound: Cn1cc(-c2ccc3c(c2)CCN3C(=O)Cc2cccc(C(F)(F)F)c2)c2c(N)ncnc21
In short: as §1

quisinostat = compound: Cn1cc(CNCC2CCN(c3ncc(C(=O)NO)cn3)CC2)c2ccccc21 [quisinostat]
In short: as §1

tipifarnib = compound: Cn1cncc1[C@@](N)(c1ccc(Cl)cc1)c1ccc2c(c1)c(-c1cccc(Cl)c1)cc(=O)n2C [tipifarnib]
In short: as §1

[6] = compound: NC(=O)Nc1cc(-c2cccc(F)c2)sc1C(=O)N[C@H]1CCCNC1
In short: as §1

[7] = compound: NC(=O)c1cnc(N[C@@H]2CCCC[C@@H]2N)nc1Nc1cccc(-n2nccn2)c1
In short: as §1

[8] = compound: NC1(c2ccc(-c3nc4ccn5c(=O)[nH]nc5c4cc3-c3ccccc3)cc2)CCC1
In short: as §1

crizotinib = compound: C[C@@H](Oc1cc(-c2cnn(C3CCNCC3)c2)cnc1N)c1c(Cl)ccc(F)c1Cl [crizotinib]
In short: as §1

With MAP4K5 (UniProt Q9Y4K4) as the target, how does the log2 fold change (lapatinib) read?
The log2 fold change was inactive: -0.035.

What about the log2 fold change (pictilisib) of the same target?
Its log2 fold change is inactive: 0.044.

And the log2 fold change [1]?
Its log2 fold change is inactive: 0.013.

And the log2 fold change (duvelisib)?
Its log2 fold change is inactive: -0.021.

And the log2 fold change (gandotinib)?
The log2 fold change was inactive: 0.055.

What about the log2 fold change (tozasertib) of the same target?
The log2 fold change was inactive: 0.152.

What about the log2 fold change (doramapimod) of the same target?
Its log2 fold change is inactive: -0.04.

What about the log2 fold change (bafetinib) of the same target?
The log2 fold change was inactive: -0.046.

What about the log2 fold change [2] of the same target?
Its log2 fold change is inactive: 0.112.

What about the log2 fold change (nilotinib) of the same target?
The log2 fold change was inactive: -0.035.

And the log2 fold change [3]?
The log2 fold change was inactive: 0.

And the log2 fold change (dasatinib)?
Its log2 fold change is active: 0.528.

And the log2 fold change [4]?
Its log2 fold change is inactive: -0.007.

What about the log2 fold change [5] of the same target?
Its log2 fold change is inactive: 0.105.

What about the log2 fold change (quisinostat) of the same target?
Its log2 fold change is inactive: -0.245.

And the log2 fold change (tipifarnib)?
The log2 fold change was inactive: 0.082.

And the log2 fold change [6]?
The log2 fold change was active: 0.468.

What about the log2 fold change [7] of the same target?
Its log2 fold change is inactive: -0.029.

What about the log2 fold change [8] of the same target?
The log2 fold change was inactive: 0.11.

Which results are given for LYSMD3 (UniProt Q7Z3D4)?
log2 fold change (lapatinib): inactive: -0.039; log2 fold change (pictilisib): inactive: -0.039; log2 fold change (crizotinib): inactive: -0.018; log2 fold change [1]: inactive: -0.273; log2 fold change (duvelisib): inactive: 0.066; log2 fold change (gandotinib): inactive: 0.307; log2 fold change (tozasertib): inactive: 0.058; log2 fold change (doramapimod): inactive: 0.041; log2 fold change (bafetinib): inactive: -0.057; log2 fold change [2]: inactive: 0.23; log2 fold change (nilotinib): inactive: -0.096; log2 fold change [3]: inactive: -0.293; log2 fold change (dasatinib): inactive: -0.083; log2 fold change [4]: inactive: 0.171; log2 fold change [5]: inactive: -0.068; log2 fold change (quisinostat): inactive: -0.037; log2 fold change (tipifarnib): active: 0.352; log2 fold change [6]: inactive: -0.022; log2 fold change [7]: inactive: 0.057; log2 fold change [8]: inactive: 0.023

What does the source list for MAPK14 (UniProt Q16539)?
log2 fold change (lapatinib): inactive: -0.047; log2 fold change (pictilisib): inactive: -0.004; log2 fold change (crizotinib): inactive: -0.094; log2 fold change [1]: inactive: -0.034; log2 fold change (duvelisib): inactive: -0.026; log2 fold change (gandotinib): inactive: -0.037; log2 fold change (tozasertib): inactive: 0.009; log2 fold change (bafetinib): active: 1.03; log2 fold change [2]: inactive: 0.015; log2 fold change (nilotinib): inactive: 0.563; log2 fold change [3]: inactive: 0.038; log2 fold change (dasatinib): active: 0.984; log2 fold change [4]: inactive: 0.069; log2 fold change [5]: inactive: -0.029; log2 fold change (quisinostat): inactive: -0.025; log2 fold change (tipifarnib): inactive: -0.137; log2 fold change [6]: inactive: -0.012; log2 fold change [7]: inactive: -0.005; log2 fold change [8]: inactive: -0.042

For MAPK7 (UniProt Q13164), which log2 fold change (lapatinib) is on record?
The log2 fold change was inactive: -0.145.

What about the log2 fold change (crizotinib) of the same target?
The log2 fold change was inactive: 0.246.

And the log2 fold change [1]?
Its log2 fold change is inactive: -0.083.

What about the log2 fold change (gandotinib) of the same target?
The log2 fold change was inactive: 0.161.

What about the log2 fold change (tozasertib) of the same target?
The log2 fold change was inactive: -0.029.

What about the log2 fold change (doramapimod) of the same target?
The log2 fold change was inactive: 0.01.

What about the log2 fold change [2] of the same target?
The log2 fold change was inactive: -0.099.

What about the log2 fold change (quisinostat) of the same target?
The log2 fold change was inactive: -0.156.

What about the log2 fold change [6] of the same target?
The log2 fold change was inactive: -0.044.

What about the log2 fold change [7] of the same target?
Its log2 fold change is inactive: 0.028.

What about the log2 fold change [8] of the same target?
The log2 fold change was inactive: 0.011.

Which log2 fold change (lapatinib) does the source give for MAPK11 (UniProt Q15759) here?
Its log2 fold change is inactive: 0.072.

And the log2 fold change (pictilisib)?
The log2 fold change was inactive: -0.094.

And the log2 fold change (crizotinib)?
Its log2 fold change is inactive: -0.093.

And the log2 fold change (bafetinib)?
The log2 fold change was inactive: 0.27.

What about the log2 fold change (nilotinib) of the same target?
The log2 fold change was inactive: 0.611.

What about the log2 fold change [3] of the same target?
The log2 fold change was inactive: -0.026.

And the log2 fold change [4]?
The log2 fold change was inactive: 0.321.

What about the log2 fold change (quisinostat) of the same target?
Its log2 fold change is inactive: -0.096.

What about the log2 fold change (tipifarnib) of the same target?
The log2 fold change was inactive: -0.125.

What about the log2 fold change [6] of the same target?
The log2 fold change was inactive: -0.24.

What about the log2 fold change [7] of the same target?
Its log2 fold change is inactive: 0.147.

And the log2 fold change [8]?
The log2 fold change was inactive: -0.091.

Which log2 fold change (lapatinib) does the source give for MAPK14 isoform 2 (UniProt Q16539) here?
The log2 fold change was inactive: -0.008.

And the log2 fold change (pictilisib)?
The log2 fold change was inactive: -0.054.

What about the log2 fold change (crizotinib) of the same target?
The log2 fold change was inactive: -0.028.

And the log2 fold change [1]?
The log2 fold change was inactive: 0.222.

And the log2 fold change (duvelisib)?
Its log2 fold change is inactive: -0.026.

And the log2 fold change (gandotinib)?
Its log2 fold change is inactive: -0.086.

And the log2 fold change (tozasertib)?
Its log2 fold change is inactive: 0.001.

What about the log2 fold change (bafetinib) of the same target?
The log2 fold change was inactive: 0.765.

And the log2 fold change [2]?
The log2 fold change was inactive: -0.122.

What about the log2 fold change (nilotinib) of the same target?
The log2 fold change was inactive: 0.523.

What about the log2 fold change [3] of the same target?
The log2 fold change was inactive: 0.041.

And the log2 fold change (dasatinib)?
Its log2 fold change is active: 0.879.

What about the log2 fold change [4] of the same target?
Its log2 fold change is inactive: 0.037.

And the log2 fold change [5]?
Its log2 fold change is inactive: 0.033.

What about the log2 fold change (quisinostat) of the same target?
The log2 fold change was inactive: -0.031.

And the log2 fold change (tipifarnib)?
Its log2 fold change is inactive: -0.039.

And the log2 fold change [6]?
The log2 fold change was inactive: -0.035.

And the log2 fold change [7]?
The log2 fold change was inactive: 0.076.

And the log2 fold change [8]?
Its log2 fold change is inactive: -0.018.

For MAP4K4 isoform 6 (UniProt O95819), which log2 fold change (lapatinib) is on record?
The log2 fold change was inactive: -0.002.

What about the log2 fold change (pictilisib) of the same target?
The log2 fold change was inactive: -0.092.

And the log2 fold change (duvelisib)?
The log2 fold change was inactive: -0.038.

What about the log2 fold change (tozasertib) of the same target?
Its log2 fold change is inactive: 0.102.

And the log2 fold change (bafetinib)?
The log2 fold change was inactive: 0.016.

And the log2 fold change (dasatinib)?
Its log2 fold change is inactive: -0.01.

What about the log2 fold change [5] of the same target?
The log2 fold change was inactive: 0.115.

What about the log2 fold change [7] of the same target?
Its log2 fold change is inactive: 0.021.

What about the log2 fold change [8] of the same target?
Its log2 fold change is inactive: 0.083.

With MAGEA4 (UniProt P43358) as the target, how does the log2 fold change (lapatinib) read?
The log2 fold change was inactive: -0.048.

And the log2 fold change (crizotinib)?
Its log2 fold change is inactive: -0.089.

And the log2 fold change [1]?
The log2 fold change was inactive: 0.01.

And the log2 fold change (duvelisib)?
The log2 fold change was inactive: 0.051.

And the log2 fold change (gandotinib)?
The log2 fold change was inactive: 0.009.

What about the log2 fold change (tozasertib) of the same target?
The log2 fold change was inactive: 0.015.

What about the log2 fold change (doramapimod) of the same target?
The log2 fold change was inactive: 0.013.

And the log2 fold change [2]?
Its log2 fold change is inactive: -0.159.

And the log2 fold change (nilotinib)?
The log2 fold change was inactive: 0.056.

And the log2 fold change [3]?
Its log2 fold change is inactive: -0.085.

And the log2 fold change (dasatinib)?
The log2 fold change was inactive: 0.005.

And the log2 fold change [4]?
Its log2 fold change is inactive: 0.

What about the log2 fold change [5] of the same target?
Its log2 fold change is inactive: 0.

What about the log2 fold change (quisinostat) of the same target?
Its log2 fold change is inactive: -0.035.

And the log2 fold change (tipifarnib)?
The log2 fold change was inactive: 0.034.

What about the log2 fold change [6] of the same target?
The log2 fold change was inactive: 0.031.

And the log2 fold change [7]?
The log2 fold change was inactive: -0.001.

What about the log2 fold change [8] of the same target?
Its log2 fold change is inactive: -0.115.

With MAST3 (UniProt O60307) as the target, how does the log2 fold change (lapatinib) read?
Its log2 fold change is inactive: -0.066.

And the log2 fold change (duvelisib)?
The log2 fold change was inactive: -0.017.

What about the log2 fold change (tozasertib) of the same target?
Its log2 fold change is inactive: 0.011.

And the log2 fold change (dasatinib)?
Its log2 fold change is inactive: 0.081.

And the log2 fold change [5]?
Its log2 fold change is inactive: 0.014.

What about the log2 fold change [7] of the same target?
Its log2 fold change is inactive: -0.023.

And the log2 fold change [8]?
Its log2 fold change is inactive: -0.025.

Reference: the supplement of paper PMC10849652
